Results are given in words; binding and its absence hold for the method and conditions named. For some assays here: In cells and extracts the contact can be indirect. Some results given as binding are weak or reduced against the parent protein; the word gives no strength. For some assays here: Tags and fused reporters may be left off the sequences shown.
Columns and labels:
[1] = molecular target: Osm1 (residues 32-501), 6x His-tagged (S. cerevisiae) (UniProt P21375); assay: SEC-MALS; Superdex 200 HR 10/30, 20 mM Tris-HCl pH 8.0, 150 mM NaCl; FAD- and substrate-bound Osm1; both purified
[2] = molecular target: T1, Ero1 (56-424) fused to MBP (pCDFDuet) (yeast) (UniProt Q03103); assay: pull-down; lysate of E. coli BL21(DE3) co-expressing MBP-Ero1 and His-tagged Osm1; sequential pull-down with Ni-NTA then amylose beads, HBS; immunoblot with anti-His and anti-MBP
T1 sequence: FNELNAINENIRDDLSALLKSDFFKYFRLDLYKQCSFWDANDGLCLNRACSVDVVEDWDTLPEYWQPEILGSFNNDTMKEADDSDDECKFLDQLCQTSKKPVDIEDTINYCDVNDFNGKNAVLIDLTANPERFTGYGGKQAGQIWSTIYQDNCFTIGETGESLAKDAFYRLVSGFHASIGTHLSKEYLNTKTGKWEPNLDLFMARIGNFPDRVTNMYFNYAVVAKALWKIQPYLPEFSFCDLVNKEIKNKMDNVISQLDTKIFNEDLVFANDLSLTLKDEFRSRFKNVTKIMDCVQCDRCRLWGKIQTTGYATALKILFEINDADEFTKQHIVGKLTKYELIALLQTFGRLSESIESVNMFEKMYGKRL

Sequences of proteins named here, by UniProt entry; tags and fusion partners are left off. Residues count along the entry.
UniProt P21375, residues 32-501: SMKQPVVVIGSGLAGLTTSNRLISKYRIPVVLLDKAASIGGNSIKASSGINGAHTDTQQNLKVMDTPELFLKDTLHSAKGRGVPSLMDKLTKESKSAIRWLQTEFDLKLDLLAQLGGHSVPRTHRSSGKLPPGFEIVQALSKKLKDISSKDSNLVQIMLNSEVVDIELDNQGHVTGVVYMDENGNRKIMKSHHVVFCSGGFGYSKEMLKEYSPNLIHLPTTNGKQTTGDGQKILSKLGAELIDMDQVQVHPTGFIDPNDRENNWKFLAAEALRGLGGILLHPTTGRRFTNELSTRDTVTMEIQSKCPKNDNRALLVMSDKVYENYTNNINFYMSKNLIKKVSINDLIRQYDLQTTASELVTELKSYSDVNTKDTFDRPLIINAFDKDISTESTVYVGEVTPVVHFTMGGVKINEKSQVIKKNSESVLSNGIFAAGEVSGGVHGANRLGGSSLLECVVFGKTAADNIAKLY

binding [1]: no binding | binding [2]: binds weakly
Substance: Osm1 (residues 32-501), 6x His-tagged (from UniProt P21375 32-501) (enzyme)

Source: paper PMC6242907, “Molecular basis of maintaining an oxidizing environment under anaerobiosis by soluble fumarate reductase” (Nature Communications, 2018)
